Values from PubChem BioAssay AID686943 (Drosophila RNAi Screening Center, 2013).
The screen tested about 23,000 reagents; below is a random part of those that have a named target and a result. 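Extra replicates exist only for a retested subset of genes; insulin dose and duration not given; both raised and lowered dpERK matter.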 Names joined by + are all predicted targets of the reagent. The record does not give: the amount of reagent, the time to read-out.

Aim: 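Fly genes whose loss alters ERK activation after insulin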 (primary screen)
Cells: Drosophila S2R+ haemocyte-like cells expressing YFP-tagged ERK (Rolled)
Knock-down reagent: long dsRNA against Drosophila genes
Conditions: insulin stimulation versus unstimulated cells; dose and duration not given
Read-out: 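Antibody staining for doubly phosphorylated ERK divided by ERK-YFP signal, as plate z-scores, in insulin-treated and untreated cells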
Scale: replicate 1, z-score of dpERK with insulin and replicate 2, z-score of dpERK with insulin: higher = more active ERK per ERK-YFP after insulin; replicate 1, z-score of dpERK under basal conditions: higher = more basal active ERK per ERK-YFP; replicate 1, z-score of ERK-YFP with insulin: higher = more YFP-tagged ERK signal

gene knocked down	dsRNA	replicate 1, z-score of dpERK with insulin	replicate 2, z-score of dpERK with insulin	replicate 1, z-score of dpERK under basal conditions	replicate 1, z-score of ERK-YFP with insulin
CG15458 (GeneID 50124)	DRSC20529	-0.87	0.27	-0.13	0.1
Mkp + CG34140	DRSC08585	0.66	-0.01	0.81	-0.28
prel (GeneID 35969)	DRSC07271	-0.34	-0.66	0.59	0.1
Gorab (GeneID 326245)	DRSC10383	-0.18	-0.61	-0.68	0.21
hbn (GeneID 47894)	DRSC04082	-5.54	-3.94	-1.48	-4
hbn (GeneID 47894)	DRSC04238	0.02	-0.11	0.7	1.09
hbn (GeneID 47894)	DRSC04239	-2.05	-1.3	-0.64	0.9
hbn (GeneID 47894)	DRSC22436	1.08	1.24	1.63	-2.03
chinmo (GeneID 33343)	DRSC00292	0.27	0.23	-0.13	0.74
chinmo (GeneID 33343)	DRSC00485	-1.51	-0.18	2.72	1.53
chinmo (GeneID 33343)	DRSC00509	-2.14	-4.79	-1.05	1.83
chinmo (GeneID 33343)	DRSC22413	-0.86	-1.05	-1.86	-0.01
CG16956 (GeneID 34760)	DRSC02544	0.23	0.02	0.65	-0.1
CG15073 (GeneID 37155)	DRSC06506	1.07	0.45	0.16	0.54
Ilp6 (GeneID 31220)	DRSC17906	0.64	-0.62	0.77	0.15
CtsL3 (GeneID 40741)	DRSC12171	-0.04	0.01	0.45	0.83
CG16721 (GeneID 31520)	DRSC18113	0.14	0.41	-0.05	0.09
CG42869 + Sfp93F	DRSC13505	-0.3	0.87	-0.18	-0.3
SmydA-7 (GeneID 36916)	DRSC07340	-0.45	-0.02	-0.03	0.59
AhcyL2 (GeneID 42043)	DRSC14107	0.35	0.43	-0.83	-0.62
Spn27A (GeneID 45815)	DRSC03608	0.54	1.1	0.16	0.08
CG14298 (GeneID 42259)	DRSC14777	-0.77	-0.79	-1.12	0.66
CG14605 (GeneID 40867)	DRSC12549	0.89	-0.46	-0.09	-0.52

4 entries from above in another layout.
gene knocked down,dsRNA,"replicate 1, z-score of dpERK with insulin","replicate 2, z-score of dpERK with insulin","replicate 1, z-score of dpERK under basal conditions","replicate 1, z-score of ERK-YFP with insulin"
SmydA-7 (GeneID 36916),DRSC07340,-0.45,-0.02,-0.03,0.59
AhcyL2 (GeneID 42043),DRSC14107,0.35,0.43,-0.83,-0.62
Spn27A (GeneID 45815),DRSC03608,0.54,1.1,0.16,0.08
CG14298 (GeneID 42259),DRSC14777,-0.77,-0.79,-1.12,0.66

Continued:
gene knocked down	dsRNA	replicate 1, z-score of dpERK with insulin	replicate 2, z-score of dpERK with insulin	replicate 1, z-score of dpERK under basal conditions	replicate 1, z-score of ERK-YFP with insulin
Acer (GeneID 34189)	DRSC01852	0.16	-0.88	-1.42	0.24
SF1 (GeneID 43912)	DRSC16844	1.21	1.7	-0.05	-0.06
CG31743 + CG34313	DRSC02781	-1.47	1.27	1.43	0.57
CG31743 + CG34313	DRSC02782	-0.08	0.39	-0.3	-0.43
CG13994 (GeneID 33853)	DRSC02326	0.09	0.28	1.04	-0.57
Hsdl2 (GeneID 43325)	DRSC15839	0.7	0.65	-0.03	-0.19
ClC-a (GeneID 41428)	DRSC14947	0.04	-0.23	-0.56	0.27
ClC-a (GeneID 41428)	DRSC14948	1.61	1.3	-0.18	-0.32
ClC-a (GeneID 41428)	DRSC16142	-0.35	-0.34	-0.32	0.11
Slob (GeneID 34038)	DRSC02296	1.09	-0.1	-0.45	-1.64
Slob (GeneID 34038)	DRSC03436	-0.26	-0.17	-0.02	0.12
Mis12 (GeneID 38762)	DRSC10299	-0.99	-0.32	0.09	0.44
CG6055 (GeneID 34027)	DRSC02923	0.73	0.54	0.16	0.08
CG43894 (GeneID 39464)	DRSC09225	0.63	0.61	0.79	-0.51
CG43894 (GeneID 39464)	DRSC10123	-5	-3.07	-0.03	-0.8
Spase22-23 (GeneID 42885)	DRSC15857	-0.12	1.93	-2.92	0.28
EndoG (GeneID 36309)	DRSC07292	0.38	0.41	1.09	0.71
EndoG (GeneID 36309)	DRSC22746	-0.36	0.19	0.79	0.6
CG3339 (GeneID 43295)	DRSC13821	-0.27	0.09	-0.72	0.34
CG3339 (GeneID 43295)	DRSC15479	-0.06	0.27	-0.01	0.07
Stip1 (GeneID 33202)	DRSC00756	0.39	1.15	-0.26	-0.55
CG15356 (GeneID 33370)	DRSC00386	-0.42	0.71	-2.2	-0.32
CG15169 (GeneID 35161)	DRSC02470	-0.89	0.32	0.09	1.07
CG10340 (GeneID 42020)	DRSC14232	0.07	-0.32	-0.77	0.83
Rrp6 (GeneID 41798)	DRSC16223	0.15	0.94	6.58	-4.59
Enoph (GeneID 40630)	DRSC12201	1.58	-0.24	0.38	0.06
CG5577 (GeneID 39985)	DRSC10519	0.82	-0.06	0.84	0.91
CG11927 (GeneID 33687)	DRSC00337	-1.02	-0.38	-0.06	0.38
CG15461 (GeneID 50122)	DRSC20532	0.31	0.28	0.25	-0.44
CG43373 (GeneID 39835)	DRSC09869	-0.04	-0.66	-0.65	-0.46
CG43373 (GeneID 39835)	DRSC09885	1.23	1.23	0.96	-0.09
5-HT2A (GeneID 40575)	DRSC11990	-1.14	-0.14	-0.55	1.07
Noa36 (GeneID 43384)	DRSC16761	-0.13	0.07	-0.27	0.64
TBC1D16 (GeneID 34431)	DRSC02841	-0.69	0.32	1.64	0.16
